# From patent US20200222474A1, “COMPOSITIONS AND METHODS FOR INCREASING PHYTOCHEMICAL BIOAVAILABLITY AND BIOACTIVITY” (North Carolina State University, priority 2017, published 2020)
# The source gives many values for each of these; only a part stands here.
# System: L. acidophilus NCFM
# Test: RNA-seq transcriptional analysis of L. acidophilus NCFM growing on plant glycosides
# Type: cell-based, Lactobacillus acidophilus
# [1] = LBA1974 Pyruvate oxidase, COG EH
# [2] = gene LBA0802 (Hypothetical protein)
# [3] = gene LBA0863 (Hypothetical protein)
# [4] = gene LBA0878 (Hypothetical protein)
# [5] = gene LBA0888 (Hypothetical protein)
# [6] = gene LBA0987 (Hypothetical protein)
# [7] = gene LBA1019 (Mucus binding protein)
# [8] = gene LBA1020 (Mucus binding protein)
# [9] = gene LBA1227 (Hypothetical protein)
# [10] = gene LBA1370 (Putative bacteriophage-related protein)
# [11] = gene LBA1409 (Hypothetical protein LBA1409)
# [12] = gene LBA1460 (Mucus binding protein precursor)
# [13] = gene LBA1461 (Putative regulator)
# [14] = gene LBA1539 (Hypothetical protein)
# [15] = gene LBA1608 (Hypothetical protein)
# [16] = gene LBA1612 (Fibrinogen-binding protein)
# [17] = gene LBA1652 (Mucus binding protein precursor Mub)
# [18] = gene LBA1655 (Hypothetical protein)
# [19] = gene LBA1686 (Hypothetical protein)
# [20] = gene LBA1693 (Hypothetical protein)
# [21] = gene LBA1694 (Hypothetical protein)
# [22] = gene LBA1709 (Mucus binding protein precursor Mub)
# [23] = gene LBA1784 (Hypothetical protein)
# [24] = gene LBA1786 (Hypothetical protein)
# [25] = gene LBA1791 (Hypothetical protein)
# [26] = gene LBA1792 (Hypothetical protein)
# [27] = gene LBA1794 (Gassericin K7 B accessory protein)
# [28] = gene LBA1797 (Hypothetical protein)
# [29] = gene LBA1801 (Hypothetical protein)
# [30] = gene LBA1802 (Hypothetical protein)
# [31] = gene LBA1803 (Hypothetical protein.)
# [32] = gene LBA1804 (Hypothetical protein)
# [33] = gene LBA1805 (Hypothetical protein)
# [34] = gene without printed locus tag, last line of Table 5 (Hypothetical protein)
smiles,measurement,setting,value
O=c1ccc2cc(O[C@@H]3O[C@H](CO)[C@@H](O)[C@H](O)[C@H]3O)c(O)cc2o1 [Esculin],Log2 differential normalized TPM ratio compared to glucose,[1],3.6
same,Log2 differential normalized TPM ratio compared to lactose,[1],1.2
same,Transcripts per million (rpm),[1],1092.7 rpm
same,Log2 differential normalized TPM ratio compared to glucose,[2],−0.7
same,Log2 differential normalized TPM ratio compared to lactose,[2],−1
same,Transcripts per million (rpm),[2],21 rpm
same,Log2 differential normalized TPM ratio compared to glucose,[3],2.2
same,Log2 differential normalized TPM ratio compared to lactose,[3],1.4
same,Transcripts per million (rpm),[3],240.9 rpm
same,Log2 differential normalized TPM ratio compared to glucose,[4],1.4
same,Log2 differential normalized TPM ratio compared to lactose,[4],0.2
same,Transcripts per million (rpm),[4],10.1 rpm
same,Log2 differential normalized TPM ratio compared to glucose,[5],1.4
same,Log2 differential normalized TPM ratio compared to lactose,[5],0.4
same,Transcripts per million (rpm),[5],84.8 rpm
same,Log2 differential normalized TPM ratio compared to glucose,[6],2.8
same,Log2 differential normalized TPM ratio compared to lactose,[6],2
same,Transcripts per million (rpm),[6],323.4 rpm
same,Log2 differential normalized TPM ratio compared to glucose,[7],1.6
same,Log2 differential normalized TPM ratio compared to lactose,[7],0.6
same,Transcripts per million (rpm),[7],40.2 rpm
same,Log2 differential normalized TPM ratio compared to glucose,[8],2.5
same,Log2 differential normalized TPM ratio compared to lactose,[8],2.4
same,Transcripts per million (rpm),[8],864.5 rpm
same,Log2 differential normalized TPM ratio compared to glucose,[9],1.9
same,Log2 differential normalized TPM ratio compared to lactose,[9],1.4
same,Transcripts per million (rpm),[9],281.3 rpm
same,Log2 differential normalized TPM ratio compared to glucose,[10],1.2
same,Log2 differential normalized TPM ratio compared to lactose,[10],0.7
same,Transcripts per million (rpm),[10],91.2 rpm
same,Log2 differential normalized TPM ratio compared to glucose,[11],1.8
same,Log2 differential normalized TPM ratio compared to lactose,[11],1.1
same,Transcripts per million (rpm),[11],16 rpm
same,Log2 differential normalized TPM ratio compared to glucose,[12],−0.9
same,Log2 differential normalized TPM ratio compared to lactose,[12],−5.1
same,Transcripts per million (rpm),[12],5.6 rpm
same,Log2 differential normalized TPM ratio compared to glucose,[13],−1
same,Log2 differential normalized TPM ratio compared to lactose,[13],−5.9
same,Transcripts per million (rpm),[13],3 rpm
same,Log2 differential normalized TPM ratio compared to glucose,[14],1.3
same,Log2 differential normalized TPM ratio compared to lactose,[14],−1.5
same,Transcripts per million (rpm),[14],59.4 rpm
same,Log2 differential normalized TPM ratio compared to glucose,[15],1.5
same,Log2 differential normalized TPM ratio compared to lactose,[15],0.8
same,Transcripts per million (rpm),[15],63.4 rpm
same,Log2 differential normalized TPM ratio compared to glucose,gene LBA1611 (Surface protein),2.8
same,Log2 differential normalized TPM ratio compared to lactose,gene LBA1611 (Surface protein),3.3
same,Transcripts per million (rpm),gene LBA1611 (Surface protein),1213 rpm
same,Log2 differential normalized TPM ratio compared to glucose,[16],2.8
same,Log2 differential normalized TPM ratio compared to lactose,[16],2.7
same,Transcripts per million (rpm),[16],965.4 rpm
same,Log2 differential normalized TPM ratio compared to glucose,gene LBA1633 (Surface protein),0
same,Log2 differential normalized TPM ratio compared to lactose,gene LBA1633 (Surface protein),−1.2
same,Transcripts per million (rpm),gene LBA1633 (Surface protein),7.8 rpm
same,Log2 differential normalized TPM ratio compared to glucose,[17],1.5
same,Log2 differential normalized TPM ratio compared to lactose,[17],0.9
same,Transcripts per million (rpm),[17],34.6 rpm
same,Log2 differential normalized TPM ratio compared to glucose,[18],0.3
same,Log2 differential normalized TPM ratio compared to lactose,[18],0
same,Transcripts per million (rpm),[18],5.3 rpm
same,Log2 differential normalized TPM ratio compared to glucose,[19],−0.2
same,Log2 differential normalized TPM ratio compared to lactose,[19],0.1
same,Transcripts per million (rpm),[19],167 rpm
same,Log2 differential normalized TPM ratio compared to glucose,[20],2.2
same,Log2 differential normalized TPM ratio compared to lactose,[20],1.2
same,Transcripts per million (rpm),[20],523 rpm
same,Log2 differential normalized TPM ratio compared to glucose,[21],3
same,Log2 differential normalized TPM ratio compared to lactose,[21],2
same,Transcripts per million (rpm),[21],697.9 rpm
same,Log2 differential normalized TPM ratio compared to glucose,[22],3.6
same,Log2 differential normalized TPM ratio compared to lactose,[22],3.2
same,Transcripts per million (rpm),[22],33.7 rpm
same,Log2 differential normalized TPM ratio compared to glucose,[23],1.7
same,Log2 differential normalized TPM ratio compared to lactose,[23],−0.3
same,Transcripts per million (rpm),[23],143.4 rpm
same,Log2 differential normalized TPM ratio compared to glucose,[24],1.8
same,Log2 differential normalized TPM ratio compared to lactose,[24],−0.4
same,Transcripts per million (rpm),[24],86.6 rpm
same,Log2 differential normalized TPM ratio compared to glucose,[25],1.1
same,Log2 differential normalized TPM ratio compared to lactose,[25],−1.1
same,Transcripts per million (rpm),[25],39.7 rpm
same,Log2 differential normalized TPM ratio compared to glucose,[26],0.8
same,Log2 differential normalized TPM ratio compared to lactose,[26],−1.6
same,Transcripts per million (rpm),[26],26.1 rpm
same,Log2 differential normalized TPM ratio compared to glucose,[27],1.8
same,Log2 differential normalized TPM ratio compared to lactose,[27],−0.5
same,Transcripts per million (rpm),[27],53.6 rpm
same,Log2 differential normalized TPM ratio compared to glucose,[28],2.6
same,Log2 differential normalized TPM ratio compared to lactose,[28],−2.3
same,Transcripts per million (rpm),[28],816 rpm
same,Log2 differential normalized TPM ratio compared to glucose,[29],0.9
same,Log2 differential normalized TPM ratio compared to lactose,[29],−1.5
same,Transcripts per million (rpm),[29],8.5 rpm
same,Log2 differential normalized TPM ratio compared to glucose,[30],1
same,Log2 differential normalized TPM ratio compared to lactose,[30],−1.6
same,Transcripts per million (rpm),[30],15.5 rpm
same,Log2 differential normalized TPM ratio compared to glucose,[31],1
same,Log2 differential normalized TPM ratio compared to lactose,[31],−2.1
same,Transcripts per million (rpm),[31],26.6 rpm
same,Log2 differential normalized TPM ratio compared to glucose,[32],1.6
same,Log2 differential normalized TPM ratio compared to lactose,[32],−2.2
same,Transcripts per million (rpm),[32],57.2 rpm
same,Log2 differential normalized TPM ratio compared to glucose,[33],1.7
same,Log2 differential normalized TPM ratio compared to lactose,[33],−2.2
same,Transcripts per million (rpm),[33],101.7 rpm
same,Log2 differential normalized TPM ratio compared to glucose,[34],2.1
same,Log2 differential normalized TPM ratio compared to lactose,[34],1.9
same,Transcripts per million (rpm),[34],85.5 rpm
